Measurements reported in patent publication US20160287666A1 (priority 2015, published 2016).
Some of these results come from one statement about several compounds together. For part of these data: At least one peptide structure holds a part that was inferred or is arguable (an end, a ring closure or a residue). Ends that are not written are not given here.

By UniProt entry, the sequences of proteins in these tests, tags left out. Where a name states a change or a piece, a line headed by the entry shows the natural chain unless it says otherwise.
UniProt Q15858: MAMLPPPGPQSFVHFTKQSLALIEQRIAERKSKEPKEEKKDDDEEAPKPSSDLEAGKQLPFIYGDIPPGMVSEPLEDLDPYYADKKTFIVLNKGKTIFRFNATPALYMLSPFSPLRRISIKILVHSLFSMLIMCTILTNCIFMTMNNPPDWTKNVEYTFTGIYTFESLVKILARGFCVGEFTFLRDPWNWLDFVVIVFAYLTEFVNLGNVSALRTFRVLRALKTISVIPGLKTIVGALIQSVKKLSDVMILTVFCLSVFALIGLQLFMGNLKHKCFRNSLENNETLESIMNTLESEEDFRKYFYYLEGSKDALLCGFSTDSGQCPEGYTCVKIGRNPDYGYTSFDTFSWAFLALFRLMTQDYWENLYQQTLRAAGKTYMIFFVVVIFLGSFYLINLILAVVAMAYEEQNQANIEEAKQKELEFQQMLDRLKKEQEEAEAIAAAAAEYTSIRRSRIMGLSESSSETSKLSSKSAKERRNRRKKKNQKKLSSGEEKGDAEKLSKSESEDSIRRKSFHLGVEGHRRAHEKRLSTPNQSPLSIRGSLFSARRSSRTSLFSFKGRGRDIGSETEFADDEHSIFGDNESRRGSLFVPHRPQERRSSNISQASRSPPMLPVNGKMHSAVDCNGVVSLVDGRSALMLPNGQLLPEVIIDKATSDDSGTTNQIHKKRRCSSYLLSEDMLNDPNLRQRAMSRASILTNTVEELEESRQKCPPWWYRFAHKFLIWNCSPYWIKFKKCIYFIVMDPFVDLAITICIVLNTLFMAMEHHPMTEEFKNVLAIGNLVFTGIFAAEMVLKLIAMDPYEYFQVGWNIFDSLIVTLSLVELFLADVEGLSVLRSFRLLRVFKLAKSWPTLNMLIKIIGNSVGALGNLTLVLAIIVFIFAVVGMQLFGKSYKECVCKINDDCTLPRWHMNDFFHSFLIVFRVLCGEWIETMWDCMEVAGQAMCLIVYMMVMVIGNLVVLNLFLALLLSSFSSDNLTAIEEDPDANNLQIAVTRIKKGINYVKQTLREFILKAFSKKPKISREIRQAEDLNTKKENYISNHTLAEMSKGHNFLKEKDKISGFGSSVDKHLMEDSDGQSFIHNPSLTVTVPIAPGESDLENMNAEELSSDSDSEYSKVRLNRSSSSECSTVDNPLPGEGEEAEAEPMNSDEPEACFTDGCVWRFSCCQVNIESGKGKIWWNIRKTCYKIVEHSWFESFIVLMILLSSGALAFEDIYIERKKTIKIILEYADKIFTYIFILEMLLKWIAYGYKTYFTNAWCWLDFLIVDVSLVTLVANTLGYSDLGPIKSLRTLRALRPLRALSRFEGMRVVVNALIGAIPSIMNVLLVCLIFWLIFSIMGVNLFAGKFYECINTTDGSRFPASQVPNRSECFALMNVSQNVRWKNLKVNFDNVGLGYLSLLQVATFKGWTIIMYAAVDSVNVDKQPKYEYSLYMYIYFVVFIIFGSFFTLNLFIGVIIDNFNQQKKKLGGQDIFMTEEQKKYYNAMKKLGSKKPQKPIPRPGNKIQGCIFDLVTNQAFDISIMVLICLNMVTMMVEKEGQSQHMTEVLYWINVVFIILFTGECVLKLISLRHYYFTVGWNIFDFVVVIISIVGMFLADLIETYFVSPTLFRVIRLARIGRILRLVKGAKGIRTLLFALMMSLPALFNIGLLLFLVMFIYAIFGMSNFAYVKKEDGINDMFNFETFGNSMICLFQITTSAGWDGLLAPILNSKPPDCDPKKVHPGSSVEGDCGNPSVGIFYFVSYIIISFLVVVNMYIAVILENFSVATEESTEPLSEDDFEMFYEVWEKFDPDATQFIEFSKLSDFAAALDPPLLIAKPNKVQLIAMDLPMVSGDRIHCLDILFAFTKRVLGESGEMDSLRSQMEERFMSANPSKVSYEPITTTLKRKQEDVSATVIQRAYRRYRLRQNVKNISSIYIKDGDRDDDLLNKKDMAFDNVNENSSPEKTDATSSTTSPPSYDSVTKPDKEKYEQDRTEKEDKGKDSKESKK

Experiments:
human Nav1.7 [1] = target: T1, human Nav1.7 (Homo sapiens, UniProt Q15858, W1161R); type: cell-based; conditions: read-out: IC50 for human Nav1.7, FLIPR Tetra membrane depolarization assay
human Nav1.7 [2] = target: T1, human Nav1.7; type: cell-based

| Substance | IC50 (human Nav1.7 [1]) [nM] | inhibition of Nav1.7 activity (currents), QPatch assay (human Nav1.7 [2]) |
| --- | --- | --- |
| GPQCQKWMQTCDREKKCCEGFVCTLWCRKKLW-OH (cysteine pairing not given here) [NV1D3369] | ≤ 30 | – |
| GPQCQKWMQTCDRNRKCCEGFVCTLWCRKKLW-OH (cysteine pairing not given here) [NV1D3044] | ≤ 30 | – |
| GPQCQKWMQTCDRQRKCCEGFVCTLWCRKKLW-OH (cysteine pairing not given here) [NV1D3367] | ≤ 30 | – |
| GPQCQKWMQTCDAERKCCEGFVCRLWCKKKLW-OH (cysteine pairing not given here) [NV1D2775] | ≤ 30 | – |
| GPQCQKWMQTCDAKRKCCEGFVCRLWCKKKLW-OH (cysteine pairing not given here) [NV1D3048] | ≤ 30 | – |
| GPQCQKWMQTCDRNRKCCEGFSCTLWCRKKLW-OH (cysteine pairing not given here) [NV1D3542] | ≤ 30 | – |
| GPQCQQWMQTCDRERKCCEGFVCTLWCRKKLW-OH (cysteine pairing not given here) [NV1D3351] | ≤ 30 | – |
| GPQCQKWMQTCDRNRKCCEGFVCRLWCRKKLW-OH (cysteine pairing not given here) [NV1D3032] | ≤ 30 | – |
| GPQCQKWMQTCDRERKCCEGFVCTLWCRKKLWYGRKKRRQRRR-OH (cysteine pairing not given here) [NV1D3526] | ≤ 30 | – |
| GPQCQKWMQTCDRRRKCCEGFVCTLWCRKKLW-OH (cysteine pairing not given here) [NV1D3045] | ≤ 30 | – |
| GPQCQKWMQTCDRERKCCDGFVCTLWCRKKLW-OH (cysteine pairing not given here) [NV1D3387] | ≤ 30 | – |
| GPQCQKWMQTCDRERKCCEQFVCTLWCRKKLW-OH (cysteine pairing not given here) [NV1D3396] | ≤ 30 | – |
| GPQCKKWMQTCDRERKCCEGFVCTLWCRKKLW-OH (cysteine pairing not given here) [NV1D3340] | ≤ 30 | – |
| GPQCQKWMQTCDRRRKCCEGFVCTLWCKKKLW-OH (cysteine pairing not given here) [NV1D3031] | ≤ 30 | – |
| GPQCQKWMQTCDRERKCCQGFVCTLWCRKKLW-OH (cysteine pairing not given here) [NV1D3388] | ≤ 30 | – |
| GPQCQKWMQTCDANRKCCEGFVCRLWCRKKLW-OH (cysteine pairing not given here) [NV1D3018] | ≤ 30 | – |
| GPQCQKWMQTCDRRRKCCEGFVCRLWCKKKLW-OH (cysteine pairing not given here) [NV1D3013] | ≤ 30 | – |
| GPQCQKWMQTCDRKRKCCEGFVCTLWCKKKLW-OH (cysteine pairing not given here) [NV1D3056] | ≤ 30 | – |
| GPQCQKWMQTCDRERSCCEGFVCTLWCRKKLW-OH (cysteine pairing not given here) [NV1D3382] | ≤ 30 | – |
| GPQCQKWMQTCDRERQCCEGFVCTLWCRKKLW-OH (cysteine pairing not given here) [NV1D3381] | ≤ 30 | – |
| GPQCAKWMQTCDRERKCCEGFVCTLWCRKKLW-OH (cysteine pairing not given here) [NV1D3342] | ≤ 30 | – |
| GPQCQKWMQTCDRERACCEGFVCTLWCRKKLW-OH (cysteine pairing not given here) [NV1D3378] | ≤ 30 | – |
| GPQCQKWMQTCDARRKCCEGFVCTLWCKKKLW-OH (cysteine pairing not given here) [NV1D3017] | ≤ 30 | – |
| GPQCQKWMQTCDRRRKCCEGFVCRLWCRKKLW-OH (cysteine pairing not given here) [NV1D3033] | ≤ 30 | – |

| Substance | IC50 (human Nav1.7 [1]) [nM] | inhibition of Nav1.7 activity (currents), QPatch assay (human Nav1.7 [2]) |
| --- | --- | --- |
| GPQCQSWMQTCDRERKCCEGFVCTLWCRKKLW-OH (cysteine pairing not given here) [NV1D3352] | ≤ 30 | – |
| GPQCQKWMQTCDARRKCCEGFVCTLWCRKKLW-OH (cysteine pairing not given here) [NV1D3036] | ≤ 30 | – |
| GPQCQKWMQTCDAKRKCCEGFVCTLWCKKKLW-OH (cysteine pairing not given here) [NV1D3051] | ≤ 30 | – |
| GPQCQKWMQTCDANRKCCEGFVCTLWCKKKLW-OH (cysteine pairing not given here) [NV1D3016] | ≤ 30 | – |
| GPQCQKWMQSCDRERKCCEGFVCTLWCRKKLW-OH (cysteine pairing not given here) [NV1D3359] | ≤ 30 | – |
| GPQCQKWMQTCDAKRKCCEGFSCTLWCRKKLW-OH (cysteine pairing not given here) [NV1D3533] | ≤ 30 | – |
| GPQCQKWMQTCDANRKCCEGFVCRLWCKKKLW-OH (cysteine pairing not given here) [NV1D3005] | ≤ 30 | – |
| GPQCQKWMQTCDRERKCCEGFVCRLWCRKKLW-OH (cysteine pairing not given here) [NV1D3015] | ≤ 30 | – |
| GPQCQKWMQTCDRKRKCCEGFVCTLWCRKKLW-OH (cysteine pairing not given here) [NV1D3062] | ≤ 30 | – |
| GPQCQKWMQRCDRERKCCEGFVCTLWCRKKLW-OH (cysteine pairing not given here) [NV1D3353] | ≤ 30 | – |
| GPQCRKWMQTCDRERKCCEGFVCTLWCRKKLW-OH (cysteine pairing not given here) [NV1D3339] | ≤ 30 | – |
| GPQCQKWMQTCTRERKCCEGFVCTLWCRKKLW-OH (cysteine pairing not given here) [NV1D3362] | ≤ 30 | – |
| GPQCQKWMQQCDRERKCCEGFVCTLWCRKKLW-OH (cysteine pairing not given here) [NV1D3358] | ≤ 30 | – |
| GPQCSKWMQTCDRERKCCEGFVCTLWCRKKLW-OH (cysteine pairing not given here) [NV1D3345] | ≤ 30 | – |
| GPQCQKWMQTCDAERKCCEGFVCRLWCKKKLWGGGGG-OH (cysteine pairing not given here) [NV1D3254] | ≤ 30 | – |
| GPQCQRWMQTCDRERKCCEGFVCTLWCRKKLW-OH (cysteine pairing not given here) [NV1D3346] | ≤ 30 | – |
| GPQCQKWMQTCDARRKCCEGFVCRLWCKKKLW-OH (cysteine pairing not given here) [NV1D3006] | – | at least 25% |
| GPQCQKWMQTCDAKRKCCEGFVCTLWCRKKLW-OH (cysteine pairing not given here) [NV1D3058] | ≤ 30 | – |
| GPQCQKWMQTCDRTRKCCEGFVCTLWCRKKLW-OH (cysteine pairing not given here) [NV1D3368] | ≤ 30 | – |
| GPQCQKWMQTCDRERKCCEGFVCTLWCRKKLWGGGGG-OH (cysteine pairing not given here) [NV1D3792] | ≤ 30 | – |
| GPQCQKWMQTCDRERKCCEGFVCRLWCKKKLW-OH (cysteine pairing not given here) [NV1D3004] | ≤ 30 | – |
| GPQCQKWMQKCDRERKCCEGFVCTLWCRKKLW-OH (cysteine pairing not given here) [NV1D3354] | ≤ 30 | – |
| GPQCQKWMQTCDRNRKCCEGFVCRLWCKKKLW-OH (cysteine pairing not given here) [NV1D3012] | ≤ 30 | – |
| GPQCQKWMQTCDRKRKCCEGFVCRLWCKKKLW-OH (cysteine pairing not given here) [NV1D3050] | ≤ 30 | – |
